In all, about 3,200 compounds were measured (“TSA(without NAD+) / Primary screening (TSA) / delta Tm (K)”: median about -0.07, highest 2% from about 0.37 on). This is one part of the list.
The compounds below were run against NAD-dependent deacetylase Sirtuin 1 (human, UniProt Q96EB6) (assay: primary screen, delta tm). Settings: 10 µM.
Set-up: single well (n = 1)
In short: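 Thermal shift of Sirtuin 1 measured without NAD+, compound at 10 µM (n = 1); value is ΔTm, with hits defined as ΔTm > 0.45 K or < −1.5 K. Hits retested at 5, 10, 20 µM (n = 4) and counterscreened on bovine carbonic anhydrase and ABL1 SH2 domain.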

By UniProt entry, the sequences of proteins in these tests, tags left out. Residues count along the entry.
UniProt Q96EB6, 2-747 limits assumed: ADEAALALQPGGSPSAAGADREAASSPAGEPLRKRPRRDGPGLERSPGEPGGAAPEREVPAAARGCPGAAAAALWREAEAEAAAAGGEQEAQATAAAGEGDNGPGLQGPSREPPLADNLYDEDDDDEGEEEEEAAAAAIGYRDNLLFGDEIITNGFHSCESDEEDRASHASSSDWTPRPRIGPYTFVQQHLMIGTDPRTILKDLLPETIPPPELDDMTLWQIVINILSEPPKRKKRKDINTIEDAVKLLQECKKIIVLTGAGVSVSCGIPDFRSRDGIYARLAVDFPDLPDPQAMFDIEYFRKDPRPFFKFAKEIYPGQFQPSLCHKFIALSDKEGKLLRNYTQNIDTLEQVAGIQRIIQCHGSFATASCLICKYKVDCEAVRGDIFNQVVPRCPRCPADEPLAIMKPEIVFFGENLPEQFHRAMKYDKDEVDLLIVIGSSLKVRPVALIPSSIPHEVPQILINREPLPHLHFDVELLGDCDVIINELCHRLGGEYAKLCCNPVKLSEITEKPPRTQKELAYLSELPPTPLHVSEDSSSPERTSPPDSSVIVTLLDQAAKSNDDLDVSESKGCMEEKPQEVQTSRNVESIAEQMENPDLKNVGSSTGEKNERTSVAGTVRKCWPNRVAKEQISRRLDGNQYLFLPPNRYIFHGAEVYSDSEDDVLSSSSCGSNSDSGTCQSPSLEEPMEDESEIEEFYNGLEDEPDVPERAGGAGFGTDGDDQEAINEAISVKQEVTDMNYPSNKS

SMILES	TSA(without NAD+) / Primary screening (TSA) / delta Tm (K)
CCn1nccc1CNc1cnc2c(c1)c(C)nn2C	-0.23
CNc1ncnc2c1cnn2-c1ccccc1	-0.12
Cc1ccc(OC2CCN(Cc3cc(=O)n4c(-c5ccccc5)csc4n3)CC2)cc1C	-0.18
Cc1ccc(C(=O)C2=C(O)C(=O)N(CCCN3CCOCC3)C2c2ccc(OC(C)C)cc2)o1 (stereo not drawn)	-0.02
Cc1ccc(C(=O)Nc2ccc(N3CCN(Cc4ccccc4)CC3)cc2)cc1NC(=O)c1ccco1	0.28
NC(=O)c1nn(CC(=O)Nc2ccc(N3CCN(Cc4ccccc4)CC3)cc2)c(=O)c2ccccc12	0.13
C/C=C/c1ccc(OCC(=O)Nc2cccc(S(=O)(=O)NCc3ccco3)c2)c(OC)c1	-0.15
O=C(COc1ccccc1Cc1ccccc1)NNC(=O)C1=COCCO1	-0.15
O=C(C1=C(O)C(=O)N(CCCN2CCOCC2)C1c1ccc(F)cc1)c1cc2ccccc2o1 (stereo not drawn)	0.09
CCn1cnnc1C1CCN(c2ncc([N+](=O)[O-])cc2C(N)=O)CC1	-0.02
COc1ccc(C(=O)C2=C(O)C(=O)N(CCCN3CCOCC3)C2c2ccc(OC)cc2)cc1 (stereo not drawn)	-0.13
O=C(NC1CCN(Cc2ccccc2)C1=O)c1cccnc1S (stereo not drawn)	-0.05
CCc1ccc(CNC(C)c2c(C)nn(C)c2C)cc1 (stereo not drawn)	-0.15
O=C(Nc1cccc(S(=O)(=O)N2CCOCC2)c1)c1nn(Cc2ccccc2)c(=O)c2ccccc12	-0.08
CC1Cc2ccccc2N1C(=O)COC(=O)/C=C/c1cccc(F)c1 (stereo not drawn)	-0.15
Clc1ccc(-c2nc(CSc3nnc(NCc4ccco4)s3)cs2)cc1	0.17
CC(N)CCO (stereo not drawn)	-0.23
CCNCc1ccc2c(c1)OCO2	0.08
Cn1c(-c2ccccc2)c(C=O)c2ccccc21	-0.07
O=C1/C(=C\c2ccc(Br)cc2)COc2ccccc21	0.12

SMILES	TSA(without NAD+) / Primary screening (TSA) / delta Tm (K)
NC(=O)C1CCN(c2nc(CSc3ccccc3)nc3sc4c(c23)CCCC4)CC1	1.78
NC(=O)C1CCN(Cc2nc3ccc(Cl)cc3c(=O)[nH]2)CC1	-0.33
CCCOc1cccc(C2C(C(=O)c3ccco3)=C(O)C(=O)N2CCCN2CCOCC2)c1 (stereo not drawn)	0.06
Cc1cc(CNc2ccccc2C(N)=O)no1	0.06
COc1ccc(C2C(C(=O)c3cc4ccccc4o3)=C(O)C(=O)N2CCCN2CCOCC2)cc1 (stereo not drawn)	-0.13
Cc1ccc(NC(=O)CN2CCN(C(=O)c3ccccc3NC(=O)c3ccco3)CC2)cc1	-0.04
O=C(CN1CCCCCCC1=O)NCCc1nc2ccccc2[nH]1	-0.17
Cc1cccc(NC(=O)CN2CCN(c3ccccc3F)CC2)c1C	0.12
CCCC(N)CN (stereo not drawn)	-0.23
NS(=O)(=O)c1ccc2c(c1)CCN2C(=O)Nc1cccc2ccccc12	-0.07
O=c1oc2ccc3ccccc3c2cc1-c1cnc(N/N=C/c2ccc(Br)cc2)s1	0.03
Cc1ccc(C(=O)OCC(=O)NC(C)C23CC4CC(CC(C4)C2)C3)cc1NC(=O)c1ccco1 (stereo not drawn)	-0.07
Cc1cc(C(=O)OCc2cc3ccccc3[nH]c2=O)on1	-0.21
CCn1c(S)nnc1C1CC1	-0.13
NC(=O)c1ccc(NC(=O)c2cc(-c3cccnc3)nc3ccccc23)cc1	-0.13
NC(=O)c1ccc(NC(=O)COC(=O)CNC(=O)C2CCCCC2)cc1	0.07
CN1CCN(C(=O)/C=C/c2cn(CCC#N)c3ccccc23)C(c2ccccc2)C1 (stereo not drawn)	-0.11
Cc1cccc(Nc2nnc(SCC(=O)Nc3ccc(C(N)=O)cc3)s2)c1	-0.04
Cc1ccc(C(=O)OCC(=O)NC(C)c2ccc3c(c2)CCCC3)cc1O (stereo not drawn)	-0.05
Cc1[nH]c2ccc(CNC(=O)N3CCC(C(N)=O)CC3)cc2c1C	0.02

SMILES	TSA(without NAD+) / Primary screening (TSA) / delta Tm (K)
O=C(/C=C/c1ccc(N2CCCC2=O)cc1)NCCN1CCOCC1	-0.11
CC(=O)Nc1ccc(NC(=O)c2cn(Cc3ccccc3)nc2-c2ccc(Cl)cc2)cc1	0.22
Oc1ccc(/C=N/c2ccccc2Cc2ccccc2)c(O)c1O	-0.52
N#CC1=C(N)N(c2ccccc2)C(=O)C1	-0.17
COc1ccc(CCNC(=O)c2ccccc2SCC(=O)NC23CC4CC(CC(C4)C2)C3)cc1	0.02
O=C1/C(=C/c2ccc(F)cc2)Oc2cc(O)ccc21	0.05
Cc1noc(C)c1COc1cccc(C(=O)Nc2ccc(N3CCN(Cc4ccccc4)CC3)cc2)c1	-0.02
CN(C)c1ccc(S(N)(=O)=O)cc1N	-0.01
CCN(CC)S(=O)(=O)c1cccc(C(=O)N[C@H](C(=O)OCC(=O)NC(C)C23CC4CC(CC(C4)C2)C3)C(C)C)c1 (stereo partly drawn)	-0.08
O=C1/C(=C/c2cccc3cccnc23)COc2ccc(Br)cc21	0.02
C=CCSCCN	-0.08
CC(C)(C)OC(=O)N1CCN(C(=O)CNc2ccccc2C(N)=O)CC1	0.29
O=[N+]([O-])c1ccc(-c2nnc(CSc3nnc(NCc4ccccc4)s3)o2)cc1	-0.08
Cc1ccc(-c2nn(-c3ccccc3)cc2C(=O)Nc2cccc(S(=O)(=O)N3CCOCC3)c2)cc1	0.07
CCCOc1ccc(NC=C2C(=O)NC(=S)NC2=O)cc1OCCC	-0.12
Cc1cccc2c(CC(=O)O)c(-c3ccccc3)[nH]c12	-0.02
O=C(Cc1cccc2ccccc12)NC(c1ccccc1)c1ccccc1	-0.04
Cn1ncc2c(=O)n(CC(=O)Nc3cc(C(N)=O)ccc3N3CCCC3)cnc21	0.03
COCCC(C)N (stereo not drawn)	-0.15
O=c1[nH]cnc2c(Cl)cc(Cl)cc12	-0.12

Random excerpt: three entries already listed
SMILES	TSA(without NAD+) / Primary screening (TSA) / delta Tm (K)
CCN(CC)S(=O)(=O)c1cccc(C(=O)N[C@H](C(=O)OCC(=O)NC(C)C23CC4CC(CC(C4)C2)C3)C(C)C)c1 (stereo partly drawn)	-0.08
Cc1ccc(OC2CCN(Cc3cc(=O)n4c(-c5ccccc5)csc4n3)CC2)cc1C	-0.18
O=C(COc1ccccc1Cc1ccccc1)NNC(=O)C1=COCCO1	-0.15

From paper PMC6925144, “A prospective compound screening contest identified broader inhibitors for Sirtuin 1” (Scientific Reports, 2019)
